These are yes or no findings as the source states them, for the method shown. Binding can be weak; no strength is given. For part of these data: Binding seen in cells or lysates may run through a third protein. For part of these data: Tags and fused reporters may be left off the sequences shown. Each block holds one molecule with its values, some of them ahead of it.
Legend:
[1] = target: cytosolic kinase domain of FERONIA (FER-KIN) (Arabidopsis thaliana) (UniProt Q9SCZ4); assay: two-hybrid
[2] = target: cytosolic kinase domain of ANJEA (ANJ-KIN) (Arabidopsis thaliana) (UniProt Q9FN92); assay: two-hybrid
[3] = target: T1, extracellular domain of FERONIA (FER-ECD) (Arabidopsis thaliana) (UniProt Q9SCZ4); assay: two-hybrid
T1 sequence: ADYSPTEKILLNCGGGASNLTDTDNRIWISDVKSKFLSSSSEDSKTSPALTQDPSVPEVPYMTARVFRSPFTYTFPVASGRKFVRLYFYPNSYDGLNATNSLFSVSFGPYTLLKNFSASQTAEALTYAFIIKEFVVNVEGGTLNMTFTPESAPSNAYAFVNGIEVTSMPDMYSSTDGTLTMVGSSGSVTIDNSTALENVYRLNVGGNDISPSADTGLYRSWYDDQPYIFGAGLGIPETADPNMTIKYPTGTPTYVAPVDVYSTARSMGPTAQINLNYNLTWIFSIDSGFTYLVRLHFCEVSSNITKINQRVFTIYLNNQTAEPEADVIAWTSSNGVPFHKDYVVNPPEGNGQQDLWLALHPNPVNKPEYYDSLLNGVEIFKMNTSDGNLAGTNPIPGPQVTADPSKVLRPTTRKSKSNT

Sequences of proteins named here, by UniProt entry; tags and fusion partners are left off. A change or cut given only in a name is not applied to a line headed by its entry. Residues count along the entry.
UniProt Q9FN92: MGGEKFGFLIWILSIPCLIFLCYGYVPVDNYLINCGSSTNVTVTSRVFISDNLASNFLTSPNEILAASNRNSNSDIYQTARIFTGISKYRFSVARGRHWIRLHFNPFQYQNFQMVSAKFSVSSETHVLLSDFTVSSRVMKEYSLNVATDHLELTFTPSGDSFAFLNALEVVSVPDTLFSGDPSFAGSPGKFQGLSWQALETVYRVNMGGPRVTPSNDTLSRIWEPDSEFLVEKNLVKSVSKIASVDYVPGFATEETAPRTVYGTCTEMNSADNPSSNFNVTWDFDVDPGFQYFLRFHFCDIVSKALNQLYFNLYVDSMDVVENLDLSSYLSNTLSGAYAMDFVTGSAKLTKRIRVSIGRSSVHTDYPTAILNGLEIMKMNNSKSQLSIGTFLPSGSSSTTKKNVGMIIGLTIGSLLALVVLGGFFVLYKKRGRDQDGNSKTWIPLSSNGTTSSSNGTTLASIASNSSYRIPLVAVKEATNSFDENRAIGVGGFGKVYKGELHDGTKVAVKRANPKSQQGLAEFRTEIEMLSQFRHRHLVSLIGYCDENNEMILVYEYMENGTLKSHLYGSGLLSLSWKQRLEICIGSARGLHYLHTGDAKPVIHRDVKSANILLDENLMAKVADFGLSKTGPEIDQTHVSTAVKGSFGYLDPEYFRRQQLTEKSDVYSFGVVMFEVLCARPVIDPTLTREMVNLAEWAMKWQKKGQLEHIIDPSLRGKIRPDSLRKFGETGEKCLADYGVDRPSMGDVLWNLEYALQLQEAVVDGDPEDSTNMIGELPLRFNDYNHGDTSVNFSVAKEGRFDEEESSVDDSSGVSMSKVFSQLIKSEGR
extracellular domain of HERK1 (HERK1-ECD) (Q9LX66, residues 24-405): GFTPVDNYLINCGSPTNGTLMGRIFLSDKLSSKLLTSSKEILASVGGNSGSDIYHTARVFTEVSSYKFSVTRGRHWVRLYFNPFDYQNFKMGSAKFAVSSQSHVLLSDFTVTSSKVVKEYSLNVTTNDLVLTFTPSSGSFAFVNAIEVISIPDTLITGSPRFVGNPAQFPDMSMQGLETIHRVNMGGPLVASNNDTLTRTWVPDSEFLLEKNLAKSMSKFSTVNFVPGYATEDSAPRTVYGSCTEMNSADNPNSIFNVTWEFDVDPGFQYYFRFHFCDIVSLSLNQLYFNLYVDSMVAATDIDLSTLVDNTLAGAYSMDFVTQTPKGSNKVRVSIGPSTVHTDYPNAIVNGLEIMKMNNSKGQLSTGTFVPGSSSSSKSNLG
cytosolic kinase domain of HERK1 (HERK1-KIN) (Q9LX66, residues 429-830): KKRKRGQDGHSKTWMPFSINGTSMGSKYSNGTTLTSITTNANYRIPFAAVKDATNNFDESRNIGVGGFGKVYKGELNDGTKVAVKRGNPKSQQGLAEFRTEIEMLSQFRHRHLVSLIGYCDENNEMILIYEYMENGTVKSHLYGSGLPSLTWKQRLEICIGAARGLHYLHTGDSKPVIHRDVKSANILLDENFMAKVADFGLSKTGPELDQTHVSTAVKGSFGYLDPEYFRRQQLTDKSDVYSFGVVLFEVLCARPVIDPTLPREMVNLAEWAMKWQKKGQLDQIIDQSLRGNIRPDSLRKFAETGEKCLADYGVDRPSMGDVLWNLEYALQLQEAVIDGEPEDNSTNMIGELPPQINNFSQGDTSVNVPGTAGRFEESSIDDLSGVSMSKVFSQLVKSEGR

[4] = target: extracellular domain of HERK1 (HERK1-ECD) (Arabidopsis thaliana) (UniProt Q9LX66); assay: two-hybrid
[5] = target: extracellular domain of ANJEA (ANJ-ECD) (Arabidopsis thaliana) (UniProt Q9FN92); assay: two-hybrid
[6] = target: T2, LORELEI (LRE) residues 23-138 (Arabidopsis thaliana) (UniProt B3GS44); assay: two-hybrid
T2 sequence: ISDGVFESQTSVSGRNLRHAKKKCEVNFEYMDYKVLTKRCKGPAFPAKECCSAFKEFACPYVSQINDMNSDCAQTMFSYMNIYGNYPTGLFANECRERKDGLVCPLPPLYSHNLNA

[7] = target: ANJ-GFP (pFER::ANJ-GFP) transiently expressed in N. benthamiana (Arabidopsis thaliana) (UniProt Q9FN92); assay: co-IP

Molecule: cytosolic kinase domain of ANJEA (ANJ-KIN) (from UniProt Q9FN92) (domain or fragment)
- binding [1]: binds weakly

Molecule: cytosolic kinase domain of HERK1 (HERK1-KIN) (from UniProt Q9LX66 429-830) (domain or fragment)
- binding [2]: binds weakly

Molecule: extracellular juxtamembrane domain of HERCULES RECEPTOR KINASE 1 (HERK1exJM) (from UniProt Q9LX66) (domain or fragment)
- binding [6]: binds

B1: HA-LRE (p35S::HA-LRE) transiently expressed in N. benthamiana (protein, UniProt B3GS44 21-139)
chain: SSISDGVFESQTSVSGRNLRHAKKKCEVNFEYMDYKVLTKRCKGPAFPAKECCSAFKEFACPYVSQINDMNSDCAQTMFSYMNIYGNYPTGLFANECRERKDGLVCPLPPLYSHNLNAS
- binding [7]: binds

Next, values leading:

- binding [3]: binds
- binding [4]: binds
Molecule: extracellular domain of ANJEA (ANJ-ECD) (from UniProt Q9FN92) (domain or fragment)

- binding [5]: binds
Molecule: extracellular domain of HERK1 (HERK1-ECD) (from UniProt Q9LX66 24-405) (domain or fragment)

- binding [6]: binds
Molecule: extracellular juxtamembrane domain of ANJEA (ANJexJM) (from UniProt Q9FN92) (domain or fragment)

- binding [5]: binds
B2: extracellular domain of FERONIA (FER-ECD) (domain or fragment, UniProt Q9SCZ4 28-446)
chain: T1 sequence
